Publication PMC5472760
Residue numbers refer to the chain shown, from its start. Results are given in words; binding and its absence hold for the method and conditions named. Binding seen in cells or lysates may run through a third protein. Some entries that bind do so weakly or less than the wild type. For some of these results: Tags and fused reporters may be left off the sequences shown.

Amino acid sequences for entries named in this document (tags omitted). Residues count along the entry.
UniProt O43353: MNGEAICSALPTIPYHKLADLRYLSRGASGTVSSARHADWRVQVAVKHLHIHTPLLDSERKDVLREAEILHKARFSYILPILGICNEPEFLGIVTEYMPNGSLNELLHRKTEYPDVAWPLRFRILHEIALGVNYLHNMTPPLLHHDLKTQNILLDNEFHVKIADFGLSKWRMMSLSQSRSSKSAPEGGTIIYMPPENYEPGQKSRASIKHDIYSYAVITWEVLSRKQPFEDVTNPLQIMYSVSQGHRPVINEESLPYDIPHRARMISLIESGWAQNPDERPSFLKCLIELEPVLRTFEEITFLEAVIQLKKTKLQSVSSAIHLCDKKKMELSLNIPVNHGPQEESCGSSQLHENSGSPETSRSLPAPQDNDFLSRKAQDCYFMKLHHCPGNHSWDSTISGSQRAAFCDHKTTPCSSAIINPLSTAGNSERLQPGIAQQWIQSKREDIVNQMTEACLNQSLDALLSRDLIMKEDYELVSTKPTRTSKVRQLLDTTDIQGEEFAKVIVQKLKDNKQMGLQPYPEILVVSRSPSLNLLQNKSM
UniProt Q9HC29: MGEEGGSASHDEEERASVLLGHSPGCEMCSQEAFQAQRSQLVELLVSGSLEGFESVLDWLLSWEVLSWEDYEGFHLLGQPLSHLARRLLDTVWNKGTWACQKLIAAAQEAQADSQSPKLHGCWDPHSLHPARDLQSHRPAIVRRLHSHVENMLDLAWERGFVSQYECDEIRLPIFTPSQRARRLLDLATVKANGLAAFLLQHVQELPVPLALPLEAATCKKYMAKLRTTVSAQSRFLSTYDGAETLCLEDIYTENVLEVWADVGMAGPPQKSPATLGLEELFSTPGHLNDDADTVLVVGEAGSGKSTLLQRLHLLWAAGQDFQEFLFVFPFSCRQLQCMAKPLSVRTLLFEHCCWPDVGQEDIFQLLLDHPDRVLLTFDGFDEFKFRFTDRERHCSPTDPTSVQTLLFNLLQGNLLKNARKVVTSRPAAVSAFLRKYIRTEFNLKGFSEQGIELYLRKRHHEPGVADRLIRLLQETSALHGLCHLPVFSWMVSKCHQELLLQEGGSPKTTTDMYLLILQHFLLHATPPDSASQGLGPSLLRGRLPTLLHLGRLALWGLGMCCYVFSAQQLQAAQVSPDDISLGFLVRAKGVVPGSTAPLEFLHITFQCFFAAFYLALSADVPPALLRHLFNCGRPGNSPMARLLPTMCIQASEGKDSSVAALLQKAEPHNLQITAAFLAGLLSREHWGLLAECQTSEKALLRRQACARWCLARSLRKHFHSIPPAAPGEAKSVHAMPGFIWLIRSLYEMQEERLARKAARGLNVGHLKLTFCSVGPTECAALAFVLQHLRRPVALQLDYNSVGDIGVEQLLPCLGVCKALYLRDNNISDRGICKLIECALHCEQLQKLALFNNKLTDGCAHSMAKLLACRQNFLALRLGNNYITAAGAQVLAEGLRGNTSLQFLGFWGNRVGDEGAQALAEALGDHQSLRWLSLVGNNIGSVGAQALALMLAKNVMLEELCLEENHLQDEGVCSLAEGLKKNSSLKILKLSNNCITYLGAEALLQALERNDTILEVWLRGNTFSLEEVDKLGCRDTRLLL
UniProt P51617: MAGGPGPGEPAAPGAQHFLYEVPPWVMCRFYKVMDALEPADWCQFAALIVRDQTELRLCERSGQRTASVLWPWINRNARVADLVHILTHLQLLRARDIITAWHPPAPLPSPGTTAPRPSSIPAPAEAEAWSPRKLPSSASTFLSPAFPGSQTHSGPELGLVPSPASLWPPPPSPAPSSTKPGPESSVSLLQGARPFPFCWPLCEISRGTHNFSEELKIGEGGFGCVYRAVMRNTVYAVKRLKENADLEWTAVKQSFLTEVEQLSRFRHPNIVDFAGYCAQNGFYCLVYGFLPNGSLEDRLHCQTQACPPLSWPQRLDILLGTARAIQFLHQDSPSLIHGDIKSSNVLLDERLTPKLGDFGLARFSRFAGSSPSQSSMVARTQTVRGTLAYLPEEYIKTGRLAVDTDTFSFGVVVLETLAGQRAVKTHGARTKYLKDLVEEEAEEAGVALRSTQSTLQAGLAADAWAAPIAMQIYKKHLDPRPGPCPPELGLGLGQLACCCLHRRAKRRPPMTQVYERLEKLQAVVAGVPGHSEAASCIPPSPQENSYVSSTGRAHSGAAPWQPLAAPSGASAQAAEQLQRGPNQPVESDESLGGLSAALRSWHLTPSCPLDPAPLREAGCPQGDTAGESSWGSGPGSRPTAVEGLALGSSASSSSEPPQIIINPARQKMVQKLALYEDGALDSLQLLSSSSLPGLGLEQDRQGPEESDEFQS
UniProt P25963: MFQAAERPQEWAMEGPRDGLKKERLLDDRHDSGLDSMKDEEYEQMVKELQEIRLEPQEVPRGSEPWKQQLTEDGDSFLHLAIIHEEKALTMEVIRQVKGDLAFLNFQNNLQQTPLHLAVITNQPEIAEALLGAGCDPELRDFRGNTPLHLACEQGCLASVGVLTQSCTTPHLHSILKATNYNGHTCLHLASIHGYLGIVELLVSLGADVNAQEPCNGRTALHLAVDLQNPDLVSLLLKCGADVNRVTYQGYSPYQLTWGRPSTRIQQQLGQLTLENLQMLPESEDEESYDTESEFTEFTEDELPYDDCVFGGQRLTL
UniProt P31040, residues 43-664: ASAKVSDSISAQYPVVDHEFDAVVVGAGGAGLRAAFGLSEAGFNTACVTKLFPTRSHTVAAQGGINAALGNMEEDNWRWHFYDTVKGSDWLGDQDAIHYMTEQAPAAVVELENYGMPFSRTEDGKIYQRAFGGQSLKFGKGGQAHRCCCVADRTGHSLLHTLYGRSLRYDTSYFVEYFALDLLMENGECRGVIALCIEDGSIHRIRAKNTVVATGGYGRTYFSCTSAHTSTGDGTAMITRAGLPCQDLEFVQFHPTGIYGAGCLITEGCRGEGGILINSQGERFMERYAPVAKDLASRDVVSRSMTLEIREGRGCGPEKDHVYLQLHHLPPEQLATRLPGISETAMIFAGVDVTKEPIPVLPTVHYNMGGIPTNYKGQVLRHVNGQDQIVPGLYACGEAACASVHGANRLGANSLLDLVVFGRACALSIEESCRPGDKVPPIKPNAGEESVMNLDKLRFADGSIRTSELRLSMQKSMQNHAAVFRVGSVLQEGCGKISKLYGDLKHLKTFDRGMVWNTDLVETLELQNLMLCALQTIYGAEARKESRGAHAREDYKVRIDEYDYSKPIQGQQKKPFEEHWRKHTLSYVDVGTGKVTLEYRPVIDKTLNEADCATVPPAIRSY

Assays:
[1] = target: RIP2, endogenous in human monocyte-derived macrophages (human (endogenous in MDMs)) (UniProt O43353); assay: co-IP; lysates of human MDMs transfected with scrambled or LACC1 siRNA, treated with 100 μg/ml MDP for 15 min; RIP2 or NOD2 immunoprecipitated on protein A sepharose beads; recruited proteins by western blot
[2] = target: NOD2, endogenous in human monocyte-derived macrophages (human (endogenous in MDMs)) (UniProt Q9HC29); assay: as above
[3] = target: T1, LACC1 Val254 disease-risk variant, transfected into HEK293 cells (human) (UniProt Q8IV20); assay: co-IP; lysates of HEK293 cells transfected with LACC1 variants and NOD2, treated with 100 μg/ml MDP, 6 h; immunoprecipitated with anti-LACC1 antibody on protein A sepharose beads; SDHA by western blot
T1 sequence: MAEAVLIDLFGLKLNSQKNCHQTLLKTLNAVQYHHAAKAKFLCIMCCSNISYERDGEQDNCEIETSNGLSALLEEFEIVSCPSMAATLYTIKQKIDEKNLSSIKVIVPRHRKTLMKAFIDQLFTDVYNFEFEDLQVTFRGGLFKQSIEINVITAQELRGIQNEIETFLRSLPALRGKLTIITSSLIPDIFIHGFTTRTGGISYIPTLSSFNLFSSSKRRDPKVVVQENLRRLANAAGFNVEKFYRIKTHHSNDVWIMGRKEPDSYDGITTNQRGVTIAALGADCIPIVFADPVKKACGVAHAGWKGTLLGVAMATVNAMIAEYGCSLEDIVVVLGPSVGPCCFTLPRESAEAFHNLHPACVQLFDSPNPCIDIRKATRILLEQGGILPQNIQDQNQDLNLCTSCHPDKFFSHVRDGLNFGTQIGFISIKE

[4] = target: T2, LACC1 His249,250Ala mutant, transfected into HEK293 cells (human) (UniProt Q8IV20); assay: as above
T2 sequence: T1 sequence with H249A, H250A, V254I

[5] = target: T3, LACC1 Ile254 variant, transfected into HEK293 cells (human) (UniProt Q8IV20); assay: as above
T3 sequence: T1 sequence with V254I

| Substance | binding [1] | binding [2] | binding [3] | binding [4] | binding [5] |
| --- | --- | --- | --- | --- | --- |
| IRAK1, endogenous in human monocyte-derived macrophages (from UniProt P51617 1-712) | binds | binds | – | – | – |
| phospho-IκBα, endogenous in human monocyte-derived macrophages (from UniProt P25963 1-317) | binds | binds | – | – | – |
| succinate dehydrogenase (SDH) subunit A, endogenous in HEK293 cells (from UniProt P31040 43-664) | – | – | binds | binds | binds |
